Reference: the supplement of paper PMC7661543
The effect of the compound repeats well; differences between the knockouts mostly do not.

Tested on: HCC-38
Test: relative cell number vs DMSO control (72 h) (% of DMSO); higher = less growth inhibition (more cells)
Experimental: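 QMAP-Seq: a pool of 5 breast cancer cell lines (ZR-75-1, SKBR3, HCC-38, MDA-MB-231, BT-20), each carrying 12 doxycycline-inducible Cas9 sgRNA perturbations (11 knockouts plus non-targeting sgNT), was treated with compounds for 72 h at four 10-fold doses (10 nM-10 uM or 1 nM-1 uM range). Barcodes were amplified and sequenced, and cell number was interpolated from 293T spike-in standard curves. The result is expressed as % of the median of DMSO wells. Two biological replicates.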

CC(C)n1cnc2c(NCCc3ccc(O)cc3)nc(-c3csc4ccccc34)nc21 [StemRegenin1]
Details | relative cell number
sgRNA knockout: sgATF3, 10 nM | 93.5
sgRNA knockout: sgATF3, 100 nM | 112
sgRNA knockout: sgATF3, 1000 nM | 105
sgRNA knockout: sgATF3, 10000 nM | 86.7
sgRNA knockout: sgATF4, 10 nM | 89.8
sgRNA knockout: sgATF4, 100 nM | 109
sgRNA knockout: sgATF4, 1000 nM | 101
sgRNA knockout: sgATF4, 10000 nM | 82.1
sgRNA knockout: sgATF6, 10 nM | 108
sgRNA knockout: sgATF6, 100 nM | 115.89
sgRNA knockout: sgATF6, 1000 nM | 97.5
sgRNA knockout: sgATF6, 10000 nM | 95.6
sgRNA knockout: sgATG7, 10 nM | 97.8
sgRNA knockout: sgATG7, 100 nM | 103
sgRNA knockout: sgATG7, 1000 nM | 98.4
sgRNA knockout: sgATG7, 10000 nM | 85.9
sgRNA knockout: sgERN1, 10 nM | 79.4
sgRNA knockout: sgERN1, 100 nM | 110
sgRNA knockout: sgERN1, 1000 nM | 102
sgRNA knockout: sgERN1, 10000 nM | 88.1
sgRNA knockout: sgHSF1, 10 nM | 92.1
sgRNA knockout: sgHSF1, 100 nM | 119
sgRNA knockout: sgHSF1, 1000 nM | 101
sgRNA knockout: sgHSF1, 10000 nM | 92.7
sgRNA knockout: sgHSF2, 10 nM | 89.5
sgRNA knockout: sgHSF2, 100 nM | 131
sgRNA knockout: sgHSF2, 1000 nM | 101.8
sgRNA knockout: sgHSF2, 10000 nM | 83.4
sgRNA knockout: sgKEAP1, 10 nM | 92.1
sgRNA knockout: sgKEAP1, 100 nM | 156
sgRNA knockout: sgKEAP1, 1000 nM | 96.3
sgRNA knockout: sgKEAP1, 10000 nM | 97.6
sgRNA knockout: sgNFE2L2, 10 nM | 86.9
sgRNA knockout: sgNFE2L2, 100 nM | 105
sgRNA knockout: sgNFE2L2, 1000 nM | 105
sgRNA knockout: sgNFE2L2, 10000 nM | 91.7
sgRNA knockout: sgSLC35F2, 10 nM | 89.9
sgRNA knockout: sgSLC35F2, 100 nM | 106
sgRNA knockout: sgSLC35F2, 1000 nM | 92.5
sgRNA knockout: sgSLC35F2, 10000 nM | 91.1
sgRNA knockout: sgXBP1, 10 nM | 86.2
sgRNA knockout: sgXBP1, 100 nM | 106
sgRNA knockout: sgXBP1, 1000 nM | 101
sgRNA knockout: sgXBP1, 10000 nM | 94.3

Cc1[nH]c(/C=C2\C(=O)Nc3ccc(S(=O)(=O)N(C)c4cccc(Cl)c4)cc32)c(C)c1C(=O)N1CCN(C)CC1
Details | relative cell number
sgRNA knockout: sgATF3, 10 nM | 101
sgRNA knockout: sgATF3, 100 nM | 96.8
sgRNA knockout: sgATF3, 1000 nM | 85
sgRNA knockout: sgATF3, 10000 nM | 62.3
sgRNA knockout: sgATF4, 10 nM | 102
sgRNA knockout: sgATF4, 100 nM | 109
sgRNA knockout: sgATF4, 1000 nM | 83.1
sgRNA knockout: sgATF4, 10000 nM | 62.9
sgRNA knockout: sgATF6, 10 nM | 89.3
sgRNA knockout: sgATF6, 100 nM | 104
sgRNA knockout: sgATF6, 1000 nM | 81.2
sgRNA knockout: sgATF6, 10000 nM | 64.9
sgRNA knockout: sgATG7, 10 nM | 101
sgRNA knockout: sgATG7, 100 nM | 96.6
sgRNA knockout: sgATG7, 1000 nM | 90.4
sgRNA knockout: sgATG7, 10000 nM | 71.1
sgRNA knockout: sgERN1, 10 nM | 107
sgRNA knockout: sgERN1, 100 nM | 98.4
sgRNA knockout: sgERN1, 1000 nM | 84.9
sgRNA knockout: sgERN1, 10000 nM | 59
sgRNA knockout: sgHSF1, 10 nM | 87.3
sgRNA knockout: sgHSF1, 100 nM | 94.5
sgRNA knockout: sgHSF1, 1000 nM | 87.6
sgRNA knockout: sgHSF1, 10000 nM | 86.4
sgRNA knockout: sgHSF2, 10 nM | 100
sgRNA knockout: sgHSF2, 100 nM | 116
sgRNA knockout: sgHSF2, 1000 nM | 96.6
sgRNA knockout: sgHSF2, 10000 nM | 57.23
sgRNA knockout: sgKEAP1, 10 nM | 104
sgRNA knockout: sgKEAP1, 100 nM | 102
sgRNA knockout: sgKEAP1, 1000 nM | 90.8
sgRNA knockout: sgKEAP1, 10000 nM | 71.9
sgRNA knockout: sgNFE2L2, 10 nM | 103
sgRNA knockout: sgNFE2L2, 100 nM | 101.92
sgRNA knockout: sgNFE2L2, 1000 nM | 84.5
sgRNA knockout: sgNFE2L2, 10000 nM | 65.5
sgRNA knockout: sgSLC35F2, 10 nM | 104
sgRNA knockout: sgSLC35F2, 100 nM | 92.3
sgRNA knockout: sgSLC35F2, 1000 nM | 86.5
sgRNA knockout: sgSLC35F2, 10000 nM | 58.5
sgRNA knockout: sgXBP1, 10 nM | 97.9
sgRNA knockout: sgXBP1, 100 nM | 99.7
sgRNA knockout: sgXBP1, 1000 nM | 88.3
sgRNA knockout: sgXBP1, 10000 nM | 67.5

C[C@@H]1CN(CC(=O)Nc2ccc3c(c2)Cc2cccc(-c4cc(=O)cc(N5CCOCC5)o4)c2S3)C[C@H](C)O1
Details | relative cell number
sgRNA knockout: sgATF3, 10 nM | 94.589
sgRNA knockout: sgATF3, 100 nM | 116
sgRNA knockout: sgATF3, 1000 nM | 85
sgRNA knockout: sgATF3, 10000 nM | 59.2
sgRNA knockout: sgATF4, 10 nM | 89.4
sgRNA knockout: sgATF4, 100 nM | 109
sgRNA knockout: sgATF4, 1000 nM | 77.68
sgRNA knockout: sgATF4, 10000 nM | 70.5
sgRNA knockout: sgATF6, 10 nM | 97.2
sgRNA knockout: sgATF6, 100 nM | 106
sgRNA knockout: sgATF6, 1000 nM | 93.3
sgRNA knockout: sgATF6, 10000 nM | 57.3
sgRNA knockout: sgATG7, 10 nM | 91.6
sgRNA knockout: sgATG7, 100 nM | 112
sgRNA knockout: sgATG7, 1000 nM | 76.3
sgRNA knockout: sgATG7, 10000 nM | 69.9
sgRNA knockout: sgERN1, 10 nM | 89.1
sgRNA knockout: sgERN1, 100 nM | 102
sgRNA knockout: sgERN1, 1000 nM | 89
sgRNA knockout: sgERN1, 10000 nM | 56.26
sgRNA knockout: sgHSF1, 10 nM | 110
sgRNA knockout: sgHSF1, 100 nM | 88.2
sgRNA knockout: sgHSF1, 1000 nM | 87.2
sgRNA knockout: sgHSF1, 10000 nM | 48.9
sgRNA knockout: sgHSF2, 10 nM | 100
sgRNA knockout: sgHSF2, 100 nM | 104
sgRNA knockout: sgHSF2, 1000 nM | 88.98
sgRNA knockout: sgHSF2, 10000 nM | 62.1
sgRNA knockout: sgKEAP1, 10 nM | 97.4
sgRNA knockout: sgKEAP1, 100 nM | 99.3
sgRNA knockout: sgKEAP1, 1000 nM | 108
sgRNA knockout: sgKEAP1, 10000 nM | 47.3
sgRNA knockout: sgNFE2L2, 10 nM | 98.7
sgRNA knockout: sgNFE2L2, 100 nM | 110
sgRNA knockout: sgNFE2L2, 1000 nM | 70.5
sgRNA knockout: sgNFE2L2, 10000 nM | 67.5
sgRNA knockout: sgSLC35F2, 10 nM | 94.9
sgRNA knockout: sgSLC35F2, 100 nM | 106
sgRNA knockout: sgSLC35F2, 1000 nM | 81.6
sgRNA knockout: sgSLC35F2, 10000 nM | 63.5
sgRNA knockout: sgXBP1, 10 nM | 100
sgRNA knockout: sgXBP1, 100 nM | 112
sgRNA knockout: sgXBP1, 1000 nM | 78.1
sgRNA knockout: sgXBP1, 10000 nM | 69.9

CC(C)[C@H](O)C(=O)N[C@@H](C)C(=O)N[C@@H]1C(=O)N(C)CCc2ccccc21 [Semagacestat]
Details | relative cell number
sgRNA knockout: sgATF3, 10 nM | 99.8
sgRNA knockout: sgATF3, 100 nM | 113
sgRNA knockout: sgATF3, 1000 nM | 98.52
sgRNA knockout: sgATF3, 10000 nM | 80.2
sgRNA knockout: sgATF4, 10 nM | 95.4
sgRNA knockout: sgATF4, 100 nM | 103
sgRNA knockout: sgATF4, 1000 nM | 114
sgRNA knockout: sgATF4, 10000 nM | 75.8
sgRNA knockout: sgATF6, 10 nM | 110
sgRNA knockout: sgATF6, 100 nM | 101
sgRNA knockout: sgATF6, 1000 nM | 114
sgRNA knockout: sgATF6, 10000 nM | 95.3
sgRNA knockout: sgATG7, 10 nM | 95.5
sgRNA knockout: sgATG7, 100 nM | 106
sgRNA knockout: sgATG7, 1000 nM | 108
sgRNA knockout: sgATG7, 10000 nM | 81.1
sgRNA knockout: sgERN1, 10 nM | 96.8
sgRNA knockout: sgERN1, 100 nM | 102
sgRNA knockout: sgERN1, 1000 nM | 111
sgRNA knockout: sgERN1, 10000 nM | 88.2
sgRNA knockout: sgHSF1, 10 nM | 91.5
sgRNA knockout: sgHSF1, 100 nM | 99.5
sgRNA knockout: sgHSF1, 1000 nM | 98.2
sgRNA knockout: sgHSF1, 10000 nM | 98.7
sgRNA knockout: sgHSF2, 10 nM | 95.3
sgRNA knockout: sgHSF2, 100 nM | 96.8
sgRNA knockout: sgHSF2, 1000 nM | 107
sgRNA knockout: sgHSF2, 10000 nM | 91.7
sgRNA knockout: sgKEAP1, 10 nM | 114
sgRNA knockout: sgKEAP1, 100 nM | 86.7
sgRNA knockout: sgKEAP1, 1000 nM | 99
sgRNA knockout: sgKEAP1, 10000 nM | 111
sgRNA knockout: sgNFE2L2, 10 nM | 99.6
sgRNA knockout: sgNFE2L2, 100 nM | 105
sgRNA knockout: sgNFE2L2, 1000 nM | 114
sgRNA knockout: sgNFE2L2, 10000 nM | 78.5
sgRNA knockout: sgSLC35F2, 10 nM | 96.8
sgRNA knockout: sgSLC35F2, 100 nM | 97.3
sgRNA knockout: sgSLC35F2, 1000 nM | 99.05
sgRNA knockout: sgSLC35F2, 10000 nM | 84.7
sgRNA knockout: sgXBP1, 10 nM | 97.6
sgRNA knockout: sgXBP1, 100 nM | 103
sgRNA knockout: sgXBP1, 1000 nM | 101.9
sgRNA knockout: sgXBP1, 10000 nM | 86
